The source of these data is PubChem BioAssay AID2685 (National Center for Advancing Translational Sciences (NCATS), 2010).

The structures appear in SMILES notation. This is one part of the list. Shown are side measurements of this screen, not its main read-out; they come without a call. The list favours compounds with an active or inconclusive main result. The note in brackets gives the kind of curve behind each potency; many fits are weak.

A short description of this assay: qHTS Assay for Lipid Storage Modulators in Drosophila S3 Cells.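 On cell number change: cells counted by Cell Tracker Red CMTPX staining in the red channel.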 Particulars: BODIPY lipid droplet fluorescence, 18-24 h; for cell number change: measured here: cell count max response, cells fed with added oleic acid. Put shortly:
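Drosophila S3 cells got compounds at several concentrations plus oleic acid (400 uM solution). Laser-scanning cytometry with 488 nm excitation read lipid droplets at 500-530 nm and cells at 575-640 nm. Percent activity was relative to 20 uM Triacsin C.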
In general terms: In qHTS, concentration-response curves come from the screen itself.

[1] abbreviates: measured here: cell number channel AC50, cells fed with added oleic acid.
The mark [2] stands for this setting: measured here: lipid fluorescence (Fed channel) AC50, cells fed with added oleic acid.

`COc1ccc(CCNc2nc(-c3cccc(NC(C)=O)c3)cs2)cc1OC`: the cell number change is 108%. On to `CC(/C=N/NC(=O)c1cccc([N+](=O)[O-])c1)=C\c1ccccc1`, for which the cell number change was 12.9%. For the same compound, the AC50 (usually the concentration at which the activity in the assay is half-maximal) under setting [1] is 4.11 µM [rising, single point]. Under setting [2], the half-maximal activity concentration (AC50) is 4.11 µM [rising, partial curve]. Regarding `Cc1ccc(NC(=O)CN2C(=O)NC3(CCc4ccccc43)C2=O)cc1S(=O)(=O)N1CCCCC1` (stereo not drawn), the AC50 under setting [1] is 2.06 µM [rising, partial curve, poor fit].

For the compound `O=C(CCSc1nnc2ccc3ccccc3n12)Nc1ccc(F)cc1`, the cell number change came out at 58.1%. Moreover, the AC50 under setting [1] was 29.1 µM [rising, single point]. For the same compound, under setting [2], the half-maximal activity concentration (AC50) was 0.0651 µM [falling, full curve].

On to `CCN(Cc1ccncc1)Cc1c(O)ccc2ccccc12`, for which the AC50 under setting [2] is 0.58 µM [falling, single point]. As for `C/C(=N\NC(N)=S)c1ccccc1`, the cell number change was determined as 31.9%. For the same compound, under setting [1], the AC50 is 4.11 µM [rising, full curve, poor fit]. With `COc1ccc(CCNC(=O)c2cc(=O)c3cc(C)ccc3o2)cc1OC`, the cell number change is 16.9%. Besides, the half-maximal activity concentration (AC50) under setting [2] is 0.164 µM [falling, full curve, poor fit]. With `Cc1ccc([N+](=O)[O-])cc1NC(=O)C1CCN(S(C)(=O)=O)CC1`, the cell number change was -1.14%. Same read-out and setting: the same measure for `Cc1ccc(NC(=O)CCc2nnc(SCC(=O)Nc3ccccc3C)n2C)cc1Cl`: 50.9%. `CC1CCCCN1Cc1cnc(Cl)s1` (stereo not drawn): the cell number change is -41.6%. In addition, under setting [1], the AC50 is 1.03 µM [falling, full curve]. Moreover, under setting [2], the AC50 is 0.82 µM [falling, full curve]. `CCOC(=O)N1CCN(c2nc(-c3ccccc3)c3ccccc3n2)CC1`: the cell number change is 57%. Under setting [1], the half-maximal activity concentration (AC50) is 16.4 µM [rising, single point]. Moreover, under setting [2], the concentration at half-maximal activity (AC50) is 18.4 µM [rising, single point].

As to `CCOC(=O)c1ccc(NC(=O)CCc2nnc3ccc(N4CCCC4)nn23)cc1`, the cell number change was -28.7%. Also, the AC50 under setting [2] is 13 µM [falling, partial curve]. For `CC1CCc2ccccc2N1CC(=O)Nc1cccc(S(=O)(=O)N2CCCC2)c1` (stereo not drawn), the cell number change was determined as 4.02%. Take `CCc1nnc2sc(-c3ccc(NC(=O)c4ccc5c(c4)OCCO5)cc3)nn12`: the AC50 under setting [1] is 3.26 µM [rising, partial curve].

On to `O=[N+]([O-])c1ccc2[nH]c3c(c2c1)CCCC3`, for which the cell number change was -1.17%. Further, under setting [1], the AC50 was 6.51 µM [falling, single point]. The half-maximal activity concentration (AC50) under setting [2] is 0.00517 µM [falling, full curve, poor fit]. `Cc1c(Cl)cccc1NC(=O)CCCn1nc([N+](=O)[O-])cc1C`: the cell number change was 49.7%. Further, the AC50 under setting [1] is 11.6 µM [rising, partial curve, poor fit]. For the compound `Cc1ccc2c(CN3CCN(S(=O)(=O)c4ccc5c(c4)OCCO5)CC3)cc(=O)oc2c1C`, the cell number change was 31.7%. Moreover, the AC50 under setting [1] is 0.00517 µM [rising, full curve, poor fit]. As to `N#Cc1ccc(C23CC4CC(CC(C4)C2)C3)[nH]c1=O`, the cell number change was 4.4%.

Take `O=C(CN1C(=O)c2ccccc2S1(=O)=O)NCCSC1CCCCC1`: the cell number change was -31.6%. Further, the AC50 under setting [1] was 6.51 µM [falling, full curve, poor fit]. For the same compound, under setting [2], the AC50 is 2.31 µM [falling, partial curve, poor fit]. With `CCCC(=O)Nc1ccc(Cl)c(NC(=O)c2cccnc2)c1`, the cell number change stood at 58.4%. In addition, the AC50 under setting [1] is 0.231 µM [rising, full curve]. Besides, the AC50 under setting [2] was 29.1 µM [rising, single point].

As for `O=C1N(CN2CCN(Cc3ccccc3)CC2)c2ccccc2C12OCCCO2`, under setting [2], the AC50 was 2.31 µM [falling, partial curve].

Regarding `CCC1(c2ccccc2)NC(=O)N(C)C1=O` (stereo not drawn), the cell number change was -34.7%. Further, the concentration at half-maximal activity (AC50) under setting [1] is 4.61 µM [falling, full curve]. Moreover, the concentration at half-maximal activity (AC50) under setting [2] was 1.84 µM [falling, full curve]. For `CO/N=C/C(C#N)c1ncc(C(F)(F)F)cc1Cl` (stereo not drawn), the cell number change was -31.1%. The AC50 under setting [1] was 11.6 µM [falling, partial curve]. Besides, the concentration at half-maximal activity (AC50) under setting [2] was 0.00517 µM [falling, full curve, poor fit]. Turning to `N=c1oc2ccc3ccccc3c2cc1-c1nnc2n1CCCCC2`, the cell number change is -0.982%. Moreover, the AC50 under setting [2] was 0.92 µM [falling, full curve, poor fit]. As for `Cc1ccccc1NS(=O)(=O)c1nnc(NC(=O)C(C)C)s1`, the cell number change was -11.3%. As for `COc1ccc([C@H]2CC(=O)C=C(c3cccc(Cl)c3O)C2)cc1OC`, the cell number change worked out at 10.9%. Besides, the concentration at half-maximal activity (AC50) under setting [1] is 5.8 µM [falling, single point]. In addition, under setting [2], the AC50 is 6.51 µM [falling, single point]. Turning to `Fc1ccc(-n2c(-c3ccc4ccccc4n3)n[nH]c2=S)cc1Cl`, the cell number change came to 15.3%. As to `O=c1c(Cl)c(N2CCN(c3ccccc3)CC2)cnn1C12CC3CC(CC(C3)C1)C2`, the cell number change is 8.87%. Under setting [2], the AC50 was 0.082 µM [rising, partial curve, poor fit].

As to `COc1cc(NC(=S)NCc2cccnc2)cc(OC)c1`, the half-maximal activity concentration (AC50) under setting [2] is 2.91 µM [falling, single point]. With `CCN(CC)c1ccc(/C=N/NC(=S)NCc2ccc(OC)cc2)cc1`, the cell number change was 3.98%. For the same compound, the AC50 under setting [2] is 0.92 µM [rising, single point]. Take `CC(=O)c1ccc(C(=O)N2CCCC(C(=O)c3ccc(Cl)cc3)C2)s1` (stereo not drawn): the cell number change is -8.65%. For the same compound, under setting [2], the concentration at half-maximal activity (AC50) is 29.1 µM [falling, single point]. `COCCOC(=O)c1c(C)oc2ccc(OCc3cc(C(=O)OC)oc3C)cc12`: the cell number change was -2.69%. The AC50 under setting [2] was 4.61 µM [rising, full curve, poor fit].

`O=C(c1cccc(C(F)(F)F)c1)N1CCCCCC1`: the cell number change was -92.2%. Further, the AC50 under setting [1] was 25.9 µM [falling, partial curve, poor fit]. Besides, the AC50 under setting [2] was 20.6 µM [falling, partial curve]. For the compound `O=Cc1ccc2cccnc2n1`, the cell number change is -29%. Further, the AC50 under setting [2] is 29.1 µM [falling, single point]. `NC(=O)[C@@H]1CC2(CC(c3cccc(NC(=O)COc4ccc(Cl)cc4)c3)=NO2)CN1C(=O)COc1ccc(Cl)cc1` (stereo partly drawn): the cell number change is -16.5%. Besides, the AC50 under setting [2] was 13 µM [falling, partial curve, poor fit]. `Nc1[nH]c(N=NC(=O)c2ccc(Cl)cc2)c2ccccc12`: the cell number change amounted to 8.8%. Under setting [2], the half-maximal activity concentration (AC50) is 0.116 µM [rising, full curve, poor fit]. Take `Cc1nn2c(CN(C(=O)COc3ccccc3)c3ccccc3)nnc2c2ccccc12`: the cell number change is 14.1%. Further, under setting [2], the concentration at half-maximal activity (AC50) is 1.16 µM [falling, single point].
